# Experimental data published in US7973014B2, “Medicinal composition containing ginseng secondary glycosides, its preparation method and application” (National Institute of Pharmaceutical R&D Co., Ltd., priority 2005, dated 2011).
# System: acute myocardial infarction in dogs
# Experiment: Range of acute myocardial infarction in dogs, N-BT staining
# Assay type: in vivo, dog
# Details: 5 mg/kg
# Procedure: Test dogs were divided into the following 8 groups, 6 dogs per group: (1) blank control group, 3 ml/kg physiological saline; (2) 5 mg/kg Diltiazem group; (3) 200 mg/kg “Di'ao Xinxuekang” group; (4) 200 mg/kg ginseng root total ginsenosides (briefly referred as root total ginsenosides) group; (5) 200 mg/kg ginseng stem/leave total ginsenosides (briefly referred as stem/leave total ginsenosides) group; (6) 25 mg/kg total secondary ginsenosides group; (7) 50 mg/kg total secondary ginsenosides group; and (8) 100 mg/kg total secondary ginsenosides group. All test drugs were formulated with distilled water to have the same volume (3 ml/kg), and were administered through duodenum.
# Recording was completed at 180 minutes after administration of drug, heart was taken out immediately, cardiac ventricle was cross-sectioned parallel to coronary sulcus under heart ligature to form 5 slices, which were placed in N-BT staining solution and stained at room temperature for 15 minutes. Infarction zone (N-BT non-staining zone) and non-infarction zone (N-BT staining zone) at both sides of each slice of cardiac muscle were measured by using a multimedia color pathologic image analysis system to calculate the area of each slice of cardiac muscle, the total area of the cardiac ventricle and the total area of the infarction zones. […]
smiles,measurement,value
COc1ccc([C@@H]2Sc3ccccc3N(CCN(C)C)C(=O)[C@@H]2OC(C)=O)cc1 [Diltiazem],Cardiac ventricle area,5070.3 ± 405.8 mm^2
same,Heart area,12221.5 ± 1980.9 mm^2
